From PubChem BioAssay AID493014 (National Center for Advancing Translational Sciences (NCATS), 2011)
Out of some 340,000 compounds screened, about 170 (0.05%) were called active. Inconclusive results, whose numbers are uncertain, are shown with a selection of clear calls. Calls come from the whole dose curve; as a rule, active = well fitted inhibition curve with a large enough effect in the signal ratio, with a control signal flat (not every such curve was filed as active); inconclusive = small, poorly fitted or top-dose-only effect, or effect the other way, or a change in a side signal; inactive = flat fitted curve, though single readings scatter; the % refers to the signal ratio. A potency beside an inconclusive call is a rough fit, not a confirmed value.

Assay: qHTS Assay to Find Inhibitors of Chronic Active B-Cell Receptor Signaling;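 for activity change, negative = inhibition: plate controls were basal doxycycline-induced cells for no effect and cells given 10 µM MG132 for full effect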
Settings: ABC-DLBCL IkBa-CBG/CBR reporter, luminescence ratio (green luciferase fused to IkBa over red control in TMD8 lymphoma cells), 4 h; activity change, negative = inhibition: at 46.1 µM (top of the series)
In short: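 TMD8 ABC-DLBCL cells carrying doxycycline-inducible green luciferase fused to IkappaBalpha plus unfused red luciferase were exposed to compounds (up to 46 uM) for 4 hrs at 37C. Activity came from the overlap-corrected green/red luminescence ratio.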
Potency is the fitted concentration of half-maximal effect.

| SMILES | activity change, negative = inhibition | Potency |
| --- | --- | --- |
| CCCOC(=O)c1ccc(NC(=O)C2C3CCC(C3)C2C(=O)O)cc1 (stereo unspecified) | inconclusive: 1.65% | – |
| CN(C)S(=O)(=O)N1CCC(Oc2cccc(C(=O)NC3CCCCCC3)c2)CC1 | – | inconclusive: 12.6 µM [falling, partial curve] |
| COc1ccc(CN(C)S(=O)(=O)c2nnc(NC(=O)c3ccccc3Br)s2)cc1 | inactive | – |
| CC(C)NC(=O)C1(S(=O)(=O)c2ccccc2)CC=CC1 | inactive | – |
| CCOC(=O)N1CCN(C(=O)c2ccc(CN(c3ccc(C)c(C)c3)S(C)(=O)=O)cc2)CC1 | – | inconclusive: 12.6 µM [falling, single point] |
| O=C(COC(=O)CCc1nc2ccccc2s1)NCc1ccco1 | inconclusive: -2.05% | – |
| CCOCCn1c(C(C)O)nc2ccccc21 (stereo unspecified) | inconclusive: -1.28% | – |
| Cc1ccc(/C=N/NC(=O)c2ccc(NC(=O)c3ccccc3Cl)cc2)o1 | inconclusive: 3.1% | – |
| O=C1c2ccccc2C(=O)N1CCc1c[nH]c2ccccc12 | inactive | – |
| CC(=O)c1sc(NC(=O)c2cccc3ccccc23)nc1C | – | inconclusive: 7.31 µM [rising, partial curve, poor fit] |
| CC(Sc1nnc2c(n1)C1CCC2(C)C1(C)C)C(=O)Nc1ccccc1 (stereo unspecified) | inconclusive: 4.98% | – |
| CC(=O)Nc1ccc(Oc2sc(C(=O)c3ccccc3)c(N)c2C#N)cc1 | – | inconclusive: 11.2 µM [falling, partial curve] |
| O=C(NC(=S)NNC(=O)c1ccco1)c1ccccc1 | inactive | – |
| COc1ccc(/C=C(/C#N)C(=O)Nc2ccc(O)cc2)cc1C(=O)O | inconclusive: -6.04% | – |
| O=C(COC(=O)c1ccc(F)cc1)NCC1COc2ccccc2O1 (stereo unspecified) | – | inconclusive: 29.1 µM [falling, single point] |
| COc1ccc(/C=N/NC(=O)c2ccc(C)cc2)cc1CN1CCN(c2ccc(F)cc2)CC1 | inactive | – |
| CCOC(=O)c1c(C)[nH]c(C(=O)C(C)OC(=O)c2cccc(OCc3c(C)noc3C)c2)c1C (stereo unspecified) | inconclusive: 22.5% | – |
| CCOC(=O)c1nn(-c2ccccc2)c(=O)cc1SC(C)C | inactive | – |
| COc1c(C)cc(C(=O)C2CCCN(C(=O)c3ccc4cc[nH]c4c3)C2)cc1C (stereo unspecified) | – | inconclusive: 20 µM [falling, partial curve, poor fit] |
| Cc1ccc2[nH]c(C(=O)Nc3ccc(F)cc3)cc2c1 | – | inconclusive: 35.5 µM [rising, single point] |
| CCCCOc1ccc(NC(=O)Nc2nnc(C)s2)cc1 | inconclusive: 13.1% | – |

| SMILES | activity change, negative = inhibition | Potency |
| --- | --- | --- |
| O=C(c1ccc(Cl)cc1)c1cn[nH]c1-c1ccccc1O | – | inconclusive: 6.51 µM [falling, partial curve] |
| O=C(CCCc1ccccc1)NCc1ccccc1Cl | inconclusive: -26.5% | – |
| CSc1cccc(NC(=O)C2CCCN(c3ncnc4c3nc3n4CCCCC3)C2)c1 (stereo unspecified) | inactive | – |
| O=C(c1ccc(CS(=O)c2ccccc2Cl)o1)N1CCOCC1 (stereo unspecified) | inactive | – |
| FC(F)(F)c1nnc2ccc(NCn3nnc4ccccc43)nn12 | inconclusive: -19.1% | – |
| C[C@@H]1CC=C[C@H]2[C@H]1C(=O)N(Cc1ccccc1)[C@H]2c1ccc2ccccc2c1 | inactive | – |
| CCN(CC)C1CCN(C(=O)c2cc(COc3ccc(-n4cncn4)cc3)on2)C1 (stereo unspecified) | inactive | – |
| O=C(c1cc2cc(F)ccc2[nH]1)N1CCC(Cc2ccccc2)CC1 | inconclusive: 3.22% | – |
| Fc1cccc(Cl)c1/C=C/c1cnc2ccccc2n1 | inconclusive: 2.31% | – |
| O=C(C1=C(O)C(=O)N(Cc2ccco2)C1c1cccnc1)c1cc2ccccc2o1 (stereo unspecified) | inactive | – |
| O=C(Nc1ccccc1O)c1ccccc1O | – | inconclusive: 14.1 µM [falling, partial curve, poor fit] |
| O=C(Nc1ccc(-c2nc3cc(NC(=O)c4ccccc4Cl)ccc3o2)cc1)c1ccccc1Cl | – | inconclusive: 0.631 µM [rising, full curve, poor fit] |
| CCOC(=O)c1c(NC(=O)CN2C(=O)CN(C)C2=O)sc(C)c1C | inactive | – |
| Cc1c(C(=O)NC(C)c2ccccn2)oc2c(Cl)cccc12 (stereo unspecified) | inconclusive: 3.45% | – |
| Cc1occc1C(=O)N/N=C/C=C/c1ccc(N(C)C)cc1 | – | inconclusive: 20 µM [falling, single point] |
| O=C(NC1CCCCC1)NC1CC2CCC(C1)N2C(=O)NCc1ccccc1 (stereo unspecified) | inconclusive: 6.53% | – |
| COc1ccccc1N1CCN(C(=O)CCNC(=O)Cn2ccc3ccccc3c2=O)CC1 | inconclusive: -8.85% | – |
| Cc1c(C(=O)NCc2ccccc2)c(-c2ccccc2)nn1-c1ccccc1 | inconclusive: -4.29% | – |
| COc1cccc(/C=N/NC(=O)C(=O)N2CCCC2)c1O | – | inconclusive: 35.5 µM [falling, single point] |
| Cc1cc[n+](-c2[nH]c(=O)sc2/C=N/NC(=O)c2ccccc2[O-])cc1C | – | inconclusive: 23.1 µM [falling, single point] |

3 entries already listed, arranged by SMILES length, rising:

| SMILES | activity change, negative = inhibition | Potency |
| --- | --- | --- |
| CCOC(=O)c1c(NC(=O)CN2C(=O)CN(C)C2=O)sc(C)c1C | inactive | – |
| Cc1c(C(=O)NCc2ccccc2)c(-c2ccccc2)nn1-c1ccccc1 | inconclusive: -4.29% | – |
| C[C@@H]1CC=C[C@H]2[C@H]1C(=O)N(Cc1ccccc1)[C@H]2c1ccc2ccccc2c1 | inactive | – |
